Entries after “also recorded” stand apart in the source; their conditions may differ. At least one structure is not confirmed: it was looked up by name or label, or the drawing left a doubt.
Key:
[1] = test system: phosphorylation of ribosomal protein S6 (Ser240/244), a substrate of S6 kinase 1; assay: Immunoblot of rpS6 phosphorylation in tissue lysates; assay type: in vivo, mouse
Procedure: Signal intensities for each immunoblot were captured using a Kodak Image Station, which were analysed using Kodak 1D image analysis software.

[2] = test system: Akt Ser473 phosphorylation; assay: Immunoblot of Akt phosphorylation in tissues; assay type: in vivo, mouse
S6K1 P-Thr(389)p70 = assay: Immunoblot of S6K1 (p70) phosphorylation; assay type: in vivo, mouse; conditions: hippocampal lysates of hAPP(J20) mice
3×Tg-AD mice = assay: Morris water maze, 3xTg-AD mice; assay type: in vivo, mouse
hAPP(J20) mice = assay: Morris water maze, hAPP(J20) mice; assay type: in vivo, mouse
[3] = test system: Aβ / APP in brains of 3×Tg-AD mice; assay: APP Western blots, Aβ ELISA and immunohistochemistry in brain, 3xTg-AD mice; assay type: in vivo, mouse
Procedure: (§1) Tissue was processed and analyzed as described previously 13, 25, 26 and is described in detail in Supplementary Information. Aβ and tau were measured using specific ELISAs.
(§2) 3×Tg-AD mice were sacrificed by CO2 asphyxiation. The brains were extracted and cut in-half sagitally and tissue was processed as described (Oddo et al., 2008). The hAPP(J20) mice were euthanized by isoflurane overdose. Hemibrains were flash frozen. One hemibrain was homogeneized in liquid N2 while the other was used in immunohistochemical determinations. For Western blot analyses, proteins from both hAPP(J20) and 3×Tg-AD soluble fractions were resolved by SDS/PAGE (Invitrogen, Temecula, Calif.) under reducing conditions and transferred to a nitrocellulose or PVDF membrane. The membrane was incubated in a 5% solution of non-fat milk or in 5% BSA for 1 hour at 20° C. After overnight incubation at 4° C. with the appropriate primary antibody, the blots were washed in Tween 20-TBS (T-TBS) (0.02% Tween 20, 100 mM Tris pH 7.5; 150 nM NaCl) for 20 minutes and incubated at 20° C. with secondary antibody. The blots were then washed in T-TBS 3 times for 20 minutes each and then incubated for 5 minutes with Super Signal (Pierce, Rockford, Ill.), washed again and exposed to film. Aβ40 and Aβ42 levels were measured from the soluble and insoluble fractions using a sandwich ELISA protocol as described previously (Oddo et al., 2005). Aβ40 and Aβ42 in hAPP(J20) mice were quantitated in guanidine homogenates of Tg hAPP(J20) hemibrains as described (Galvan et al., 2006) using specific ELISA assays (Invitrogen, Carlsbad, Calif.).
Concerning immunohistochemistry, ten-micrometer cryosections from snap-frozen brains were post-fixed in 4% paraformaldehyde and stained with LC3-specific antibodies (10 μg/ml, Nous, Littleton, Colo.) followed by AlexaFluor488-conjugated donkey anti-rabbit IgG (1:500, Molecular Probes, Invitrogen, CA), and imaged with a epifluorescence microscope (Nikon Eclipse E800 with a FITC cube) and with a laser scanning confocal microscope (Zeiss LSM 510) using a 488 Argon laser and a 505 long pass filter. Images were obtained using 20× and 60× objectives. The z-stacks of confocal images were processed using LSM Viewer software (Zeiss). Aβ and tau immunohistochemistry was performed in 50 μm thick sections obtained using a vibratome slicing system and standard protocols. Images were obtained with a digital Zeiss camera and analyzed with ImageJ.

[4] = test system: Aβ / APP in brains of hAPP(J20) mice; assay: APP Western blots and Aβ ELISA in brain, hAPP(J20) mice; assay type: in vivo, mouse
Procedure: as §1, §2

[5] = test system: tau in brains of 3×Tg-AD mice; assay: Tau immunohistochemistry, Western blot and ELISA, 3xTg-AD mice; assay type: in vivo, mouse
[6] = test system: autophagy (ATG7, ATG5/ATG12, LC3); assay: Autophagy markers by Western blot in brain, 3xTg-AD mice; assay type: in vivo, mouse
autophagy (LC3) = assay: LC3 immunostaining of hippocampal CA1, hAPP(J20) mice; assay type: in vivo, mouse; conditions: CA1 projections
mice = assay: General locomotor activity; conditions: mouse, in vivo

SMILES: CO[C@H]1C[C@@H]2CC[C@@H](C)[C@@](O)(O2)C(=O)C(=O)N2CCCC[C@H]2C(=O)O[C@H]([C@H](C)C[C@@H]2CC[C@@H](O)[C@H](OC)C2)CC(=O)[C@H](C)/C=C(\C)[C@@H](O)[C@@H](OC)C(=O)[C@H](C)C[C@H](C)/C=C/C=C/C=C/1C [rapamycin, (3S,6R,7E,9R,10R,12R,14S,15E,17E,19E,21S,23S,26R,27R,34aS)-9,10,12,13,14,21,22,23,24,25,26,27,32,33,34,34a-hexadecahydro-9,27-dihydroxy-3-[(1R)-2-[(1S,3R,4R)-4-hydroxy-3-methoxycyclohexyl]-1-methylethyl]-10,21-dimethoxy-6,8,12,14,20,26-hexamethyl-23,27-epoxy-3H-pyrido[2,1-c][1,4]oxaazacyclohentria-contine-1,5,11,28,29 (4H,6H,31H)-pentone]
- S6K1 activity (rpS6 phosphorylation) ([1]; brain): no different
- Phosphorylated rpS6 ([1]; liver, combined male and female): significantly lower levels
- Level of phosphorylation of Akt ([2]; WAT, females): no difference
- Phosphorylation of Akt compared to controls ([2]; WAT, males): clear increase
- Akt phosphorylation ([2]; brain, males and females): significant increase
- Akt phosphorylation ([2]; gastrocnemius muscle, females or males, 20 month treatment): no increase
- Ser473 phosphorylation of Akt ([2]; gastrocnemius muscle, females, 5 weeks): significant increase
- Akt phosphorylation ([2]; liver, male): significant increase
- Akt Ser473 phosphorylation ([2]; visceral fat, rapamycin food for 5 weeks): significant induction
- Akt Ser473 phosphorylation (activation) ([2]; visceral fat, treated for 20 months): does not show this activation
- Akt Ser473 phosphorylation ([2]; visceral fat, treated for 20 months, males): significantly reduced
- Phosphorylation of p70 kinase (S6K1 P-Thr(389)p70): decreases
- Mean latencies in reaching a hidden platform versus control-fed Tg (3×Tg-AD mice; 2.24 mg/kg in chow, 10 weeks): significantly decreased
- Retention of the former platform site versus non-Tg groups (3×Tg-AD mice; probe trial): restored to levels indistinguishable from those of non-Tg mice; also recorded: not significantly different
- Mean latencies in reaching a hidden platform versus control-fed Tg (hAPP(J20) mice; 2.24 mg/kg in chow, 12 weeks): significantly decreased
- Retention of the former platform site versus non-Tg groups (hAPP(J20) mice; probe trial): restored to levels indistinguishable from those of non-Tg mice; also recorded: not significantly different
- Levels of C99 and C83 ([3]; Western blot): unchanged
- APP steady-state levels ([3]; Western blot, 22C11 antibody): not significantly altered
- Aβ40 levels ([3]; brain, ELISA): remained unchanged
- Number of Aβ-positive neurons ([3]; hippocampal sections): significant decrease
- Levels of C99 and C83 ([4]; Western blot): unchanged
- APP steady-state levels ([4]; Western blot, 22C11 antibody): not significantly altered
- Aβ40 levels ([4]; brain, ELISA): remained unchanged
- Tau immunoreactivity (AT270 and MC-1 antibodies) ([5]; CA1 pyramidal neurons): marked reduction
- Insoluble tau levels ([5]; ELISA): No changes were detected
- Steady-state levels of tau phosphorylated at Thr181 (AT270) ([5]; Western blot): significantly reduced
- MC1-positive neurons ([5]; hippocampi): no MC1-positive neurons were detected
- Soluble tau levels ([5]; sandwich ELISA): selectively decreased; also recorded: significantly reduced
- Levels of Atg7 [6]: significantly increased
- Levels of LC3I [6]: no significant changes
- Levels of the Atg5/Atg12 complex [6]: significantly increased
- Total levels of LC3-II [6]: significant increase
- LC3-specific immunoreactivity (autophagy (LC3)): marked increase
- Age-related decline in general locomotor activity (mice): attenuates

From patent US11110067B2 (THE BOARD OF REGENTS OF THE UNIVERSITY OF TEXAS SYSTEM, priority 2008, dated 2021)
